Experimental findings from patent publication US20170137817 are described below.

Data set [1] addresses T1, STAT5B 1*6 (oncogenic form) (UniProt P42232).
T1 sequence (looked up, limits assumed): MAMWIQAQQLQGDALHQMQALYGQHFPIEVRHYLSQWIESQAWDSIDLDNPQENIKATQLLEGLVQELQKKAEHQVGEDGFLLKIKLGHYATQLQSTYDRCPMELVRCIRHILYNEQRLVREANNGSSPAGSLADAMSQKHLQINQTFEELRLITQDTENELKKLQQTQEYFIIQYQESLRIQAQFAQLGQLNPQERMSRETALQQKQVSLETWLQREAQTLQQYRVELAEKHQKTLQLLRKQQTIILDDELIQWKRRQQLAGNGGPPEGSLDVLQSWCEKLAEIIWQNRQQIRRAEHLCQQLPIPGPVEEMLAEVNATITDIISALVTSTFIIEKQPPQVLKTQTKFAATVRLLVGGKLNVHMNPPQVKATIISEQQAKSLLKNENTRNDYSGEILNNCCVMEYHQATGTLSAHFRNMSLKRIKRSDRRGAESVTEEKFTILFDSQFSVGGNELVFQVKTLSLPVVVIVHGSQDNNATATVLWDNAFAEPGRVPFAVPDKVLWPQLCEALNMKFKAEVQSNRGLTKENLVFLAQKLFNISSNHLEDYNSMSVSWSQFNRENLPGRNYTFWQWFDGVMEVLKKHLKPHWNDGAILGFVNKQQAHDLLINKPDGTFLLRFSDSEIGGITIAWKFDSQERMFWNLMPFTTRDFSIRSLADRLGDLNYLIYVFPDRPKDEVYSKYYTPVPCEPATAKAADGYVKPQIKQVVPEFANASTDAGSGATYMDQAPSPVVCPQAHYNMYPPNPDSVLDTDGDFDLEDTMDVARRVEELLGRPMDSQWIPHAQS
In words: pull-down. The conditions noted are these: streptavidin bead pull-down and Western blot; 200 pmol aptamer, 200 ug extract, Tris pH 7.5, NaCl, EDTA, glycerol, NP40, on ice; protein in an extract; label: biotin; single-stranded DNA; variant of Apta1. In general terms: In western blotting, separated proteins are transferred to a membrane and probed.

Data set [2] concerns STAT5 (endogenous, activated, KU-812 cells) (Homo sapiens). Kind of data set: pull-down. The note with it: streptavidin bead pull-down and Western blot; 200 pmol aptamer, 200 ug extract, Tris pH 7.5, NaCl, EDTA, glycerol, NP40, on ice; protein in an extract; label: biotin; single-stranded DNA; variant of Apta1.
Data set [3] deals with T2, STAT5B (recombinant) (Mus musculus) (UniProt P42232).
T2 sequence: T1 sequence (looked up, limits assumed)
Kind of data set: SELEX. The conditions noted are these: selected on His-tag Dynabeads-captured STAT5B, overnight 4 C; purified recombinant protein; single-stranded DNA.

The exact form of at least one protein or probe is not confirmed. For some assays here: Results from cells or extracts need not show a direct contact. For some assays here: Where a protein sequence is shown, tags need not be part of it.

Consider “ATACCAGCTTATTCAATTTATCCGCAACCCACCTAGCGCCCTACCTCGTGGGAATCCAAACCCAACCAGTCCACCCACAGATAGTAAGTGCAATCT [Apta1 biotinylated]”, for which the binding result in data set [1] and in data set [2] was “binds” throughout. “ATACCAGCTTATTCAATTGTGTCTGTTCACTCGTCGATACACAACATACTCAACCCAGGCCCCTGACTGCTAATCCCCAGATAGTAAGTGCAATCT [Apta3]”: the selection result in data set [3] is recorded as “selected”. For “ATACCAGCTTATTCAATTGTGTCTGTTCACTCGTCGATACACAGCATACTCAACCCAGGCCCCTGACTGCTAATCCCCAGATAGTAAGTGCAATCT [Apta2]”, the selection result in data set [3] is “selected”. Turning to “ATACCAGCTTATTCAATTTATCCGCAACCCACCTAGCGCCCTACCTCGTGGGAATCCAAACCCAACCAGTCCACCCACAGATAGTAAGTGCAATCT [Apta1]”, the selection result in data set [3] is listed as “selected”.
